Measured values published in patent US12590121B2, “Peptide compound with repetitive sequences” (KING ABDULLAH UNIVERSITY OF SCIENCE AND TECHNOLOGY, priority 2020, dated 2026).
Non-standard residues stand in square brackets, D forms with d. Residues, ends and D or L forms follow the SMILES beside them. Cha = N[C@@H](CC1CCCCC1)C(=O)O

How the values were obtained:
[1] = Printability and shape fidelity assessment (3D bioprinting); details: IZZK 200 layers, 6 mL peptide; IIZK 180 layers, 4 ml peptide
Filament collapse test = details: 1, 2, 4, 8 and 16 mm gaps

SMILES	height of printed construct achieved [1]	printed filament holding its shape over gaps (Filament collapse test)
CC[C@H](C)[C@H](NC(C)=O)C(=O)N[C@@H](CC1CCCCC1)C(=O)N[C@@H](CC1CCCCC1)C(=O)N[C@@H](CCCCN)C(N)=O [IZZK, Ac-Ile-Cha-Cha-Lys-NH2] (Ac-I[Cha][Cha]K-NH2)	40 mm	without or with only slight sagging
CC[C@H](C)[C@H](NC(C)=O)C(=O)N[C@H](C(=O)N[C@@H](CC1CCCCC1)C(=O)N[C@@H](CCCCN)C(N)=O)[C@@H](C)CC [IIZK, Ac-Ile-Ile-Cha-Lys-NH2] (Ac-II[Cha]K-NH2)	38 mm	without or with only slight sagging
